From PMC6437049

Biological target: T1, A. fumigatus G protein-coupled receptor GprM (split-ubiquitin two-hybrid bait) (Aspergillus fumigatus) (UniProt B0YCP1)
T1 sequence: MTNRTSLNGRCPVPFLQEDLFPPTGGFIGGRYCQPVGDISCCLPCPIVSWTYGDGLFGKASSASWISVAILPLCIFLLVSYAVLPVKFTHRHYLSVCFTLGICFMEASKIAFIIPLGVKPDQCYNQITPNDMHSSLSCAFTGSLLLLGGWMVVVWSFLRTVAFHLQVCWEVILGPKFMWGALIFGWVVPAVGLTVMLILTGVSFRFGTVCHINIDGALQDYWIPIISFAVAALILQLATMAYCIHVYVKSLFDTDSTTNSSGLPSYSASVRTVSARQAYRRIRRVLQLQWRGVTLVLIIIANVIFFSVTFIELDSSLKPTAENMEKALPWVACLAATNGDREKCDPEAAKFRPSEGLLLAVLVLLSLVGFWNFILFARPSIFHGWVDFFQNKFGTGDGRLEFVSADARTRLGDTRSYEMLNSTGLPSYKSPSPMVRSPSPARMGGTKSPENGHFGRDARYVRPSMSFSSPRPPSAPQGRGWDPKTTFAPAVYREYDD
Test: two-hybrid; split-ubiquitin membrane-based yeast two-hybrid; GprM as bait (pTMBV4), Gα proteins as preys (pDL2XN), S. cerevisiae NMY32; serial dilutions spotted on selective media, 3 days at 30°C

Substance | binding
A. fumigatus Gα protein GpaB (split-ubiquitin two-hybrid prey) (Aspergillus fumigatus) | no binding
A. fumigatus Gα protein GpaC (split-ubiquitin two-hybrid prey) (Aspergillus fumigatus) | no binding

These are yes or no findings as the source states them, for the method shown.
